For this experiment, the target named is T1, AXL (mouse (endogenous in lung tissue)) (UniProt Q00993).
T1 sequence: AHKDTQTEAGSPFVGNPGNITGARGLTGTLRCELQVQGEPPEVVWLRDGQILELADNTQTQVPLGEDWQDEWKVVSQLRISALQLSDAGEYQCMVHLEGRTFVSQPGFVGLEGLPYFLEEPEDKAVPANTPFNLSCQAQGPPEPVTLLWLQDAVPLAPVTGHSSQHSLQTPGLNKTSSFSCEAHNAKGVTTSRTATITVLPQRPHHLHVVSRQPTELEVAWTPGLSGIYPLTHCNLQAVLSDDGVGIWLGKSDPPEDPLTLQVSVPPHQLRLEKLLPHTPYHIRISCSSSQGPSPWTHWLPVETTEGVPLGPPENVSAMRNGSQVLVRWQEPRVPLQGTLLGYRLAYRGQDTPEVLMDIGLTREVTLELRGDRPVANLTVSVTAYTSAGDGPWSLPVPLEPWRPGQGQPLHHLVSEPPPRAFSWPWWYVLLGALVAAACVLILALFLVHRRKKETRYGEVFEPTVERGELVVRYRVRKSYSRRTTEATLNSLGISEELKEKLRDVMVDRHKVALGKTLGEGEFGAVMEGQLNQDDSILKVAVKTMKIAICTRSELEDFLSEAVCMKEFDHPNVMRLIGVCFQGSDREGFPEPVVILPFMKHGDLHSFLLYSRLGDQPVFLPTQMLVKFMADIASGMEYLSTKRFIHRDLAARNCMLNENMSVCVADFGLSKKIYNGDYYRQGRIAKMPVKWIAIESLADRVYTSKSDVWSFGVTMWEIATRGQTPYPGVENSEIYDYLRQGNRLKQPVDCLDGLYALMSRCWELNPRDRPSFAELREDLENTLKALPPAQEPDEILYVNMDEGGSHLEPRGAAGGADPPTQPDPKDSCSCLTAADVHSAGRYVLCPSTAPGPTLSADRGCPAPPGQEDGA
The experiment is described as follows: co-IP; Lung tissue lysate (RIPA, protease inhibitors) from vehicle- or rPROS1-treated mice (2 μg/mouse/day for 4 days); precleared with Dynabeads protein G; anti-AXL antibody or IgG with Dynabeads protein G overnight at 4°C; immunoblots for Gab1, p85 and AXL. (In general: In western blotting, separated proteins are transferred to a membrane and probed.)

These are yes or no findings as the source states them, for the method shown. Binding seen in cells or lysates may run through a third protein. A result given as binding can be weak or reduced; the word gives no strength.

For the substance “p85, a regulatory subunit of PI3K (mouse (endogenous in lung tissue))”, the binding entry is reported as “binds”.

For the origin of these results see article PMC13191473.
